Reference: US8680133B2, “Alkyl indole-3-carbinol-derived antitumor agents” (The Ohio State University Research Foundation, priority 2009, dated 2014)

Assays:
Format in all cases: cell-based, human
SK-OV-3 = assay: NCI60 screening, Ovarian Cancer, SK-OV-3
NCl/ADR-RES = assay: NCI60 screening, Ovarian Cancer, NCl/ADR-RES
U0-31 = assay: NCI60 screening, Renal Cancer, U0-31
NCI-H460 = assay: NCI60 screening, Non-Small Cell Lung Cancer, NCI-H460
CAKI-1 = assay: NCI60 screening, Renal Cancer, CAKI-1
M14 = assay: NCI60 screening, Melanoma, M14
HCC-2998 = assay: NCI60 screening, Colon Cancer, HCC-2998
RXF 393 = assay: NCI60 screening, Renal Cancer, RXF 393
SF-268 = assay: NCI60 screening, CNS Cancer, SF-268
PC-3 = assay: NCI60 screening, Prostate Cancer, PC-3
HCT-116 = assay: NCI60 screening, Colon Cancer, HCT-116
EKVX = assay: NCI60 screening, Non-Small Cell Lung Cancer, EKVX
IGROV1 = assay: NCI60 screening, Ovarian Cancer, IGROV1
KM12 = assay: NCI60 screening, Colon Cancer, KM12
HCT-15 = assay: NCI60 screening, Colon Cancer, HCT-15
T-47D = assay: NCI60 screening, Breast Cancer, T-47D
OVCAR-8 = assay: NCI60 screening, Ovarian Cancer, OVCAR-8

Cc1ccc2c(c1)c(CO)cn2S(=O)(=O)c1ccc(Cl)c([N+](=O)[O-])c1 [OSU-A9M, [1-(4-chloro-3-nitro-benzenesulfonyl)-5-methyl-1H-indol-3-yl]-methanol]
Mean Optical Densities (SK-OV-3; Log10 Concentration −6.0): 1.006
Mean Optical Densities (SK-OV-3; Log10 Concentration −7.0): 1.034
Mean Optical Densities (SK-OV-3; Log10 Concentration −8.0): 1.026
Mean Optical Densities (NCl/ADR-RES; Log10 Concentration −4.0): 0.028
Mean Optical Densities (NCl/ADR-RES; Log10 Concentration −5.0): 0.034
Mean Optical Densities (NCl/ADR-RES; Log10 Concentration −6.0): 1.070
Mean Optical Densities (NCl/ADR-RES; Log10 Concentration −7.0): 1.092
Mean Optical Densities (NCl/ADR-RES; Log10 Concentration −8.0): 1.048
Mean Optical Densities (U0-31; Log10 Concentration −4.0): −0.017
Mean Optical Densities (U0-31; Log10 Concentration −5.0): 0.080
Mean Optical Densities (U0-31; Log10 Concentration −6.0): 1.405
Mean Optical Densities (U0-31; Log10 Concentration −7.0): 1.413
Mean Optical Densities (U0-31; Log10 Concentration −8.0): 1.310
Mean Optical Densities (NCI-H460; Log10 Concentration −4.0): 0.017
Mean Optical Densities (NCI-H460; Log10 Concentration −5.0): 0.016
Mean Optical Densities (NCI-H460; Log10 Concentration −6.0): 1.304
Mean Optical Densities (NCI-H460; Log10 Concentration −7.0): 1.301
Mean Optical Densities (NCI-H460; Log10 Concentration −8.0): 1.259
Mean Optical Densities (CAKI-1; Log10 Concentration −4.0): 0.028
Mean Optical Densities (CAKI-1; Log10 Concentration −5.0): 0.046
Mean Optical Densities (CAKI-1; Log10 Concentration −6.0): 1.588
Mean Optical Densities (CAKI-1; Log10 Concentration −7.0): 1.796
Mean Optical Densities (CAKI-1; Log10 Concentration −8.0): 1.759
Mean Optical Densities (M14; Log10 Concentration −4.0): 0.002
Mean Optical Densities (M14; Log10 Concentration −5.0): 0.009
Mean Optical Densities (M14; Log10 Concentration −6.0): 1.111
Mean Optical Densities (M14; Log10 Concentration −7.0): 1.218
Mean Optical Densities (M14; Log10 Concentration −8.0): 1.205
Mean Optical Densities (HCC-2998; Log10 Concentration −4.0): 0.005
Mean Optical Densities (HCC-2998; Log10 Concentration −5.0): 0.002
Mean Optical Densities (HCC-2998; Log10 Concentration −6.0): 1.421
Mean Optical Densities (HCC-2998; Log10 Concentration −7.0): 1.533
Mean Optical Densities (HCC-2998; Log10 Concentration −8.0): 1.574
Mean Optical Densities (RXF 393; Log10 Concentration −4.0): 0.056
Mean Optical Densities (RXF 393; Log10 Concentration −5.0): 0.149
Mean Optical Densities (RXF 393; Log10 Concentration −6.0): 1.512
Mean Optical Densities (RXF 393; Log10 Concentration −7.0): 1.608
Mean Optical Densities (RXF 393; Log10 Concentration −8.0): 1.589
Mean Optical Densities (SF-268; Log10 Concentration −4.0): −0.007
Mean Optical Densities (SF-268; Log10 Concentration −5.0): −0.003
Mean Optical Densities (SF-268; Log10 Concentration −6.0): 1.039
Mean Optical Densities (SF-268; Log10 Concentration −7.0): 1.022
Mean Optical Densities (SF-268; Log10 Concentration −8.0): 0.995
Mean Optical Densities (PC-3; Log10 Concentration −4.0): 0.041
Mean Optical Densities (PC-3; Log10 Concentration −5.0): 0.335
Mean Optical Densities (PC-3; Log10 Concentration −6.0): 0.971
Mean Optical Densities (PC-3; Log10 Concentration −7.0): 0.970
Mean Optical Densities (PC-3; Log10 Concentration −8.0): 1.000
Mean Optical Densities (HCT-116; Log10 Concentration −4.0): −0.005
Mean Optical Densities (HCT-116; Log10 Concentration −5.0): −0.004
Mean Optical Densities (HCT-116; Log10 Concentration −6.0): 0.295
Mean Optical Densities (HCT-116; Log10 Concentration −7.0): 0.805
Mean Optical Densities (HCT-116; Log10 Concentration −8.0): 0.809
Mean Optical Densities (EKVX; Log10 Concentration −4.0): 0.055
Mean Optical Densities (EKVX; Log10 Concentration −5.0): 0.109
Mean Optical Densities (EKVX; Log10 Concentration −6.0): 1.753
Mean Optical Densities (EKVX; Log10 Concentration −7.0): 1.925
Mean Optical Densities (EKVX; Log10 Concentration −8.0): 1.827
Mean Optical Densities (IGROV1; Log10 Concentration −4.0): −0.009
Mean Optical Densities (IGROV1; Log10 Concentration −5.0): −0.032
Mean Optical Densities (IGROV1; Log10 Concentration −6.0): 0.196
Mean Optical Densities (IGROV1; Log10 Concentration −7.0): 0.481
Mean Optical Densities (IGROV1; Log10 Concentration −8.0): 0.444
Mean Optical Densities (KM12; Log10 Concentration −4.0): −0.012
Mean Optical Densities (KM12; Log10 Concentration −5.0): −0.007
Mean Optical Densities (KM12; Log10 Concentration −6.0): 1.420
Mean Optical Densities (KM12; Log10 Concentration −7.0): 1.505
Mean Optical Densities (KM12; Log10 Concentration −8.0): 1.591
Mean Optical Densities (HCT-15; Log10 Concentration −4.0): −0.013
Mean Optical Densities (HCT-15; Log10 Concentration −5.0): −0.006
Mean Optical Densities (HCT-15; Log10 Concentration −6.0): 1.090
Mean Optical Densities (HCT-15; Log10 Concentration −7.0): 1.211
Mean Optical Densities (HCT-15; Log10 Concentration −8.0): 1.193
Mean Optical Densities (T-47D; Log10 Concentration −4.0): 0.145
Mean Optical Densities (T-47D; Log10 Concentration −5.0): 0.129
Mean Optical Densities (T-47D; Log10 Concentration −6.0): 0.547
Mean Optical Densities (T-47D; Log10 Concentration −7.0): 0.664
Mean Optical Densities (T-47D; Log10 Concentration −8.0): 0.670
Mean Optical Densities (OVCAR-8; Log10 Concentration −4.0): 0.034
Mean Optical Densities (OVCAR-8; Log10 Concentration −5.0): 0.074
Mean Optical Densities (OVCAR-8; Log10 Concentration −6.0): 1.350
Mean Optical Densities (OVCAR-8; Log10 Concentration −7.0): 1.406
Mean Optical Densities (OVCAR-8; Log10 Concentration −8.0): 1.365
